Assay results from patent US20170204191A1.
Results are given in words; binding and its absence hold for the method and conditions named. Some entries that bind do so weakly or less than the wild type. Sequences can lack the tags named with a protein.

Sequences of proteins named here, by UniProt entry; tags and fusion partners are left off. A change or cut given only in a name is not applied to a line headed by its entry. Residues count along the entry.
UniProt P15941, residues 24-1255: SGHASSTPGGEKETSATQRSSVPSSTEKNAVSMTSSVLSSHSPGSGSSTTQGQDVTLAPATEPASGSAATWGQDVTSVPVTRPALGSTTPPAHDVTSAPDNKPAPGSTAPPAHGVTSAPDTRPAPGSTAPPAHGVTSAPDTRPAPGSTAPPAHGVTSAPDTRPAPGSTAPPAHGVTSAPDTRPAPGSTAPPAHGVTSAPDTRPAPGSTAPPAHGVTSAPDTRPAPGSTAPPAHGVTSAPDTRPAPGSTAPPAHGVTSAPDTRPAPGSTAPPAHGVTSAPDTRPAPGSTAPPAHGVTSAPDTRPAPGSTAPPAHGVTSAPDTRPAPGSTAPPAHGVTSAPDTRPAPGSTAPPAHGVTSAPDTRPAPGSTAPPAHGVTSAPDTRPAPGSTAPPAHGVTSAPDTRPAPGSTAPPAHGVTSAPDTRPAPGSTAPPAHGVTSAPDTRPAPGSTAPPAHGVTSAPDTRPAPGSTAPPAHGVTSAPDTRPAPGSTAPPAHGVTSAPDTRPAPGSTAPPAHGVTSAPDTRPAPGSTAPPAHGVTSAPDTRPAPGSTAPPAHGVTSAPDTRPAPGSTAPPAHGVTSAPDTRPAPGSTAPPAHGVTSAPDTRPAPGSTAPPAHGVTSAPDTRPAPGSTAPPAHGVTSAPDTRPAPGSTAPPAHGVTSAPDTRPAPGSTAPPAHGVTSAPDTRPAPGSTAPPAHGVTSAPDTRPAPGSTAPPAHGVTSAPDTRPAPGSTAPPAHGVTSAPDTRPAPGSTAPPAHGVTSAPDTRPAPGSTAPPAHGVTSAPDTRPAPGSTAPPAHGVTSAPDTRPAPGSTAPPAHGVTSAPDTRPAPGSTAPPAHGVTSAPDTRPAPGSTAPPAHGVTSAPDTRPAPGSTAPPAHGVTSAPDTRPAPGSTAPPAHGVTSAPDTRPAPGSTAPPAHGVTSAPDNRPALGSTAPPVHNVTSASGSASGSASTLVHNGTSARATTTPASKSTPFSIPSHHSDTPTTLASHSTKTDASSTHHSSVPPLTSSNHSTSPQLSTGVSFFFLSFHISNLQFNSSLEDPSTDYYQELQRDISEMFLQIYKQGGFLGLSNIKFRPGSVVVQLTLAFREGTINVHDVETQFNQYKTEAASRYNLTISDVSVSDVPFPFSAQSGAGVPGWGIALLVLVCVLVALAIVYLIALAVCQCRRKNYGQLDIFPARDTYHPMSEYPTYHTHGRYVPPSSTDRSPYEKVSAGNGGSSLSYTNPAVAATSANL

Key:
[1] = target: MUC1* on the cell surface of MUC1-positive breast cancer cells (ZR-75-1, T47D) (UniProt P15941); test: FACS on ZR-75-1 cells, anti-Penta-His Alexa 488 detection
[2] = target: MUC1* on the cell surface of MUC1-positive breast cancer cells (ZR-75-1, T47D) (UniProt P15941); test: flow cytometry on ZR-75-1 cells, anti-penta-His Alexa 488 detection

B1: MIN-C2 scFv (heavy chain variable-linker-light chain variable, C-terminal poly-histidine tag) (scFv)
scFv: EVQLEESGGGLVKPGGSLKLSCAASGFTFSGYAMSWVRQTPEKRLEWVATISSGGTYIYYPDSVKGRFTISRDNAKNTLYLQMSSLRSEDTAMYYCARLGGDNYYEYFDVWGAGTTVTVSSAKTTPPSVYGGGGSGGGGSGGGGSDIVITQSTASLGVSLGQRATISCRASKSVSTSGYSYMHWYQQRPGQPPKLLIYLASNLESGVPARFSGSGSGTDFTLNIHPVEEEDAATYYCQHSRELPFTFGGGTKLEIKRADAAPTVSVDHHHHHH
With B1 the binding [1] was “binds” and the binding [2] was “binds”.
